Counter-ions that a name gives are not always drawn. The list shows a part of the results. Hit calls seldom repeat between salt and free forms of one compound.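 In K562 cells expressing nanoluciferase-fused kinases, luminescence was recorded at 4 h intervals between 2 and 18 h, normalized as percent of control with DMSO at 100% and a positive control at 0%. A significant (2 sigma) signal drop marks a time point as decreased. The authors' rule for a hit is not shown and takes in more than the number of time points.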
Target: ZAP70 (UniProt P43403)
Experiment: number of time points (of 5) at which kinase-Nluc abundance scored as decreased, DMSO-normalised (count); higher = more persistent destabilization
Details: K562; 2-18 h

Amino acid sequences for entries named in this document (tags omitted). A change or cut given only in a name is not applied to a line headed by its entry.
UniProt P43403: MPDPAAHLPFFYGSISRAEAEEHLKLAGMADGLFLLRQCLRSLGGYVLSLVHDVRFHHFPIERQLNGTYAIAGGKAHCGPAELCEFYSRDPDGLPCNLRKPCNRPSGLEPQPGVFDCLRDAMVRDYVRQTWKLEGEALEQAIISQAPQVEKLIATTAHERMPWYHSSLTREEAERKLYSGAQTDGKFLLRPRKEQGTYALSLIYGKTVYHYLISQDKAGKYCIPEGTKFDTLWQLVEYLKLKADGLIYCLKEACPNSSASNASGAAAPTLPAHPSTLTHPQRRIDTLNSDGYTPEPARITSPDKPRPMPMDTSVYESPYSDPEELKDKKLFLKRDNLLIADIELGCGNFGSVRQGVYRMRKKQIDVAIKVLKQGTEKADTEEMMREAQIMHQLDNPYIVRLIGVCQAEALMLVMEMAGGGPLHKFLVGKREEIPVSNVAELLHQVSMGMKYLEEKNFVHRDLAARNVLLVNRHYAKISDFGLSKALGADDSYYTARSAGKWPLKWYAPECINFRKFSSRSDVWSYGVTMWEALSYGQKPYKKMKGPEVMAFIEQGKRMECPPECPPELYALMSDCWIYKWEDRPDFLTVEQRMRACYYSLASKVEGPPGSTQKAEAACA
UniProt P11802: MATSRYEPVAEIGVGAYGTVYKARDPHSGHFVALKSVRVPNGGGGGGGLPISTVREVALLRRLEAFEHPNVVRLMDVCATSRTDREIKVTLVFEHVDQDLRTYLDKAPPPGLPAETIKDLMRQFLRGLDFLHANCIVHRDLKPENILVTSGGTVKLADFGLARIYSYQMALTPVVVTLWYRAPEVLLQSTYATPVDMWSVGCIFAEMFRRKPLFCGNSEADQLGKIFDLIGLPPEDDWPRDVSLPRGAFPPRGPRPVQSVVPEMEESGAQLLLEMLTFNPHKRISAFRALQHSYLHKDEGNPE

SMILES	number of time points
C=CC(=O)Nc1cc(Nc2nccc(-c3cn(C)c4ccccc34)n2)c(OCC(F)(F)F)nc1N(C)CCNC [AST5902  (trimesylate)] (2.5 µM)	0
COc1cc2nccc(Nc3cccc(Oc4ccccc4)c3)c2cc1OC (2.5 µM)	0
CC(C)(Oc1ccc(Cl)cc1)C(=O)Nc1ccc(OCc2ccc(C#N)cc2)cc1 [AMPK activator 4] (10 µM)	0

Target: CDK4 (UniProt P11802)
Experiment: number of time points (of 4; 2 h point missing) at which kinase-Nluc abundance scored as decreased, DMSO-normalised (count); higher = more persistent destabilization
Details: K562; 2-18 h

SMILES	number of time points
Cc1ccc(Nc2cc(N[C@@H]3CCCC[C@@H]3N)nnc2C(N)=O)nc1C (2 µM)	0
NC(=O)c1sc2c([N+](=O)[O-])cc(C(F)(F)F)cc2[n+]1[O-] [Cyclapolin 9] (10 µM)	0
O=C(C#Cc1ccccc1)c1cccc([N+](=O)[O-])c1 (10 µM)	0
NC(=O)c1ccccc1Nc1ccnc(Nc2cccc(O)c2)n1 (10 µM)	0
Cc1cncc2cccc(S(=O)(=O)N3CCCNC[C@@H]3C)c12 [H-1152 (dihydrochloride)] (10 µM)	0
C=CC(=O)Nc1cccc(Oc2nc(Nc3ccc(N4CCN(C)CC4)cc3OC)ncc2Cl)c1 (10 µM)	0
Cc1n[nH]c2ncc(C(=O)N3CCC[C@H]3c3ccc(Cl)cc3)cc12 (10 µM)	0
N#Cc1cnc(Nc2cc(NC[C@H]3CNCCO3)c(C(F)(F)F)cn2)cn1 (10 µM)	0
Cc1ncc(-c2cc(F)c(O)c(F)c2)cc1-c1cc(F)c(O)c(F)c1 (10 µM)	0
N#Cc1cc(N2CCC(C(=O)N3N=CC[C@H]3c3cc(F)cc(F)c3)CC2)ncn1 (10 µM)	0
C[C@H](Nc1cc2c(-c3ccc4c(c3)OCO4)noc2cn1)c1ccccc1 (10 µM)	1
CCOC(=O)c1c(N2CCc3ccc(OC)cc3C2)oc(C=C2C=Nc3ncccc32)c1O (10 µM)	0
CC(C)n1cnc2c(Nc3cccc(Cl)c3)nc(N[C@H]3CCCC[C@@H]3N)nc21 (2.5 µM)	0
Nc1ccc(Sc2nc3ccccc3s2)c(Cl)c1 [KRAS inhibitor-9] (10 µM)	0
COc1cc2c(cc1OC)[C@@H]1C(=O)c3ccc4c(c3O[C@@H]1CO2)C=CC(C)(C)O4 [Deguelin] (10 µM)	0
Cn1cc(-c2nc(N[C@@H]3CCCC[C@@H]3N)c(F)c3c2C(=O)NC3)cn1 [TAK-659 (hydrochloride)] (2 µM)	0
CCOC(=O)c1c(Nc2ccccc2Cl)oc(/C=C2\C=Nc3ncccc32)c1O (10 µM)	0
NC(=O)c1c(NC(=O)C2CC2)sc2c1CCCC2 (10 µM)	0
CN1CCC(Nc2nc(Nc3ccc(Oc4ccccc4)cc3)c3c(=O)[nH]cc(Br)c3n2)CC1 (2.5 µM)	0

SMILES	number of time points
N#CC(=C(/N)Sc1ccccc1N)/C(C#N)=C(\N)Sc1ccccc1N (10 µM)	0
CC(C)n1c(CO)nc2c(F)cc(-c3nc(Nc4ccc(CN5CCNCC5)cn4)ncc3F)cc21 (10 µM)	0
O=C(Nc1ccc(F)cc1F)C(NC(=S)Nc1cc(C(F)(F)F)cc(C(F)(F)F)c1)c1ccccc1 (racemic) (2.5 µM)	0
COCCNc1cc(NC(=O)N2CCCc3cc(CN4CCOCC4=O)c(C=O)nc32)ncc1C#N (10 µM)	0
CC/C(=C(\c1ccccc1)c1ccc(OCCNC)cc1)c1ccccc1 [N-Desmethyltamoxifen (hydrochloride)] (2.5 µM)	0
C[C@@H]1CN(Cc2ccc(F)cc2)[C@@H](C)CN1C(=O)c1cc2c(C(=O)C(=O)N(C)C)cn(C)c2cc1Cl [Talmapimod] (10 µM)	0
Nc1nccc(Oc2ccc3c(C(=O)Nc4cccc(C(F)(F)F)c4)cccc3c2)n1 (10 µM)	0
COc1c(Nc2ncc(Cl)c(N[C@H]3[C@@H](C(N)=O)[C@@H]4C=C[C@H]3C4)n2)ccc2c1CC[C@@H](N1CCOCC1)CC2 (10 µM)	0
CNCc1ccccc1Sc1cccc2ccccc12 [IFN alpha-IFNAR-IN-1 (hydrochloride)] (10 µM)	0
COc1cccc(-c2cc(=O)c3ccccc3o2)c1N (10 µM)	0
Nc1ccc(-c2nc3ccc(-c4nc5ccc(N)cc5[nH]4)cc3[nH]2)cc1 (10 µM)	0
Cc1ccc(C2CC(=O)NC(SCC(=O)Nc3nccs3)=C2C#N)cc1 (stereo unspecified) [Necrostatin-34] (10 µM)	0
CC(C)Cn1ncc2cc(Oc3ccc(F)cc3F)c(C(=O)NCCN(C)C)cc21 [p38α inhibitor 1] (10 µM)	0
O=C(NC[C@H](O)CO)c1ccncc1Nc1ccc(I)cc1F [Pimasertib] (10 µM)	0
CN1C(=O)N[C@@H](Cc2c[nH]c3c(Cl)cccc23)C1=O [Necrostatin 2 (S enantiomer)] (10 µM)	0
Cc1cc2c(F)c(Oc3ncnn4cc(OC[C@@H](C)OC(=O)[C@H](C)N)c(C)c34)ccc2[nH]1 [Brivanib (alaninate)] (10 µM)	0
C=CC(=O)Nc1cc(Nc2nccc(-c3cn(C)c4ccccc34)n2)c(OCC(F)(F)F)nc1N(C)CCNC [AST5902  (trimesylate)] (2.5 µM)	0
COc1cc2nccc(Nc3cccc(Oc4ccccc4)c3)c2cc1OC (2.5 µM)	0
CC(C)(Oc1ccc(Cl)cc1)C(=O)Nc1ccc(OCc2ccc(C#N)cc2)cc1 [AMPK activator 4] (10 µM)	0
